Assay results reported in publication PMC12574120.

B1: recombinant Mycoplasma bovis chaperone GrpE (protein, UniProt A1KFH3 1-235)
chain: MTDGNQKPDGNSGEQVTVTDKRRIDPETGEVRHVPPGDMPGGTAAADAAHTEDKVAELTADLQRVQADFANYRKRALRDQQAAADRAKASVVSQLLGVLDDLERARKHGDLESGPLKSVADKLDSALTGLGLVAFGAEGEDFDPVLHEAVQHEGDGGQGSKPVIGTVMRQGYQLGEQVLRHALVGVVDTVVVDAAELESVDDGTAVADTAENDQADQGNSADTLGEQAESEPSGS

Tests used:
[1] = molecular target: T1, recombinant Mycoplasma bovis chaperone GrpE (Mycoplasma bovis) (UniProt A1KFH3); test: far-Western, overlay or dot blot; twofold-diluted rGrpE spotted on nitrocellulose, blocked, incubated overnight at 4 °C with 10 μg of the host protein in solution; bound host protein detected with its antibody (1:500) and HRP secondary antibody, ECL; both purified
T1 sequence: B1 chain

vitronectin = test: ELISA; 100 ng of ECM protein coated on 96-well plates; rGrpE added at 800 ng to 3.125 ng; OD at 450 nm; both purified

| Molecule | binding [1] | binding (vitronectin) |
| --- | --- | --- |
| plasminogen | binds |  |
| tissue-type plasminogen activator (enzyme) | binds |  |
| vitronectin | binds |  |
| B1 |  | binds |

No constants are given. Whether binding was seen depends on the method and setting. A result given as binding can be weak or reduced; the word gives no strength. Sequences can lack the tags named with a protein.
